Among the data in the supplement of paper PMC10849652 are log2 fold change values, retold here.

Protein sequences, listed by entry. Tags and fused reporters are not part of them. Lines headed by an entry give the natural chain unless they say otherwise; changes in a name come on top.
UniProt O43566: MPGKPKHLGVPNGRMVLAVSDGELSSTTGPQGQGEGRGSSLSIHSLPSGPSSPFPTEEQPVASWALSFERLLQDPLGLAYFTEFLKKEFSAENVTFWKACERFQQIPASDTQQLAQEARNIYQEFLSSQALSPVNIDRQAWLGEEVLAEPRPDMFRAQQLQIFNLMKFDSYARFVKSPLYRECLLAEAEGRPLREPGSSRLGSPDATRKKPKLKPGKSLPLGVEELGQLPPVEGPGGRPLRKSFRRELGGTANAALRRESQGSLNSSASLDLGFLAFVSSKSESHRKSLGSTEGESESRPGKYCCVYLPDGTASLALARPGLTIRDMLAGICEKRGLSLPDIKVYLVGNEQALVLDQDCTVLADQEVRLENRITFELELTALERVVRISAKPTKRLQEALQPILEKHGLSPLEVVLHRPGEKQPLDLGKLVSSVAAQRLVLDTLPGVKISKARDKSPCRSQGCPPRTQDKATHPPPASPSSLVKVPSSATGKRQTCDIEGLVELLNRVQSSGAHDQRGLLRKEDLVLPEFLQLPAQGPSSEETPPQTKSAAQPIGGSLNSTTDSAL
UniProt Q96GF1: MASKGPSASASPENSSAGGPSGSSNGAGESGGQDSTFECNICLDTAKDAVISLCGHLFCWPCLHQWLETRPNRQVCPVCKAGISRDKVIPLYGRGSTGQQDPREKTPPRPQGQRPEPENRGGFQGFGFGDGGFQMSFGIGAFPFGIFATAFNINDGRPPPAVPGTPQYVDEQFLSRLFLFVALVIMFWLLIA
UniProt Q6ZNA4: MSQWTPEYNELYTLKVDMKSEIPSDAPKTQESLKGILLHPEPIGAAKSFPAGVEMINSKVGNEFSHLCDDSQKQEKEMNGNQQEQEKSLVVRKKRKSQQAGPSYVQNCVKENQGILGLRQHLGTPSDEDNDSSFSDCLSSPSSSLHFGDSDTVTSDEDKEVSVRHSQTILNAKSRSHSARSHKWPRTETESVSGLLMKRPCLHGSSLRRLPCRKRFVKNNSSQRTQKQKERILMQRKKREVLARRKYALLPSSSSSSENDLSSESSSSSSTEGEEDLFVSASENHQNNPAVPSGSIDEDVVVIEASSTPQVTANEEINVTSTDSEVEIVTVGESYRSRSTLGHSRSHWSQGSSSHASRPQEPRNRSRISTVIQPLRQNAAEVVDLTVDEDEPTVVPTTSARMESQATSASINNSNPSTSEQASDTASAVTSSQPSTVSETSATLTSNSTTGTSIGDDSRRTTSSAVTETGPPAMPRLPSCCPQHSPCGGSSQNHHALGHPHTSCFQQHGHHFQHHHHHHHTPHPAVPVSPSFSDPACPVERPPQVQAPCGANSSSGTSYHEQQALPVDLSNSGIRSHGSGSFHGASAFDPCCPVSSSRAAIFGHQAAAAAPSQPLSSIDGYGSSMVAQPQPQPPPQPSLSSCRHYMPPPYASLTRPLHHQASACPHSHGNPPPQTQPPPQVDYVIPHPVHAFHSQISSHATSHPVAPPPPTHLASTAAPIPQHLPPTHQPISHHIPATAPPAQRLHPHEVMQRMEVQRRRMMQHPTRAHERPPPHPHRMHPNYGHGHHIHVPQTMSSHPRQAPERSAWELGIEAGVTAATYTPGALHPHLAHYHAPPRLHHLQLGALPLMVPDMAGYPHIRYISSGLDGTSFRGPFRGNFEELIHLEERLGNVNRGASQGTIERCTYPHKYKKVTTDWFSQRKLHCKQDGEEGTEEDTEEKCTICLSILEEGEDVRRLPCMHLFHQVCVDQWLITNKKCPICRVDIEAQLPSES
UniProt Q9Y580: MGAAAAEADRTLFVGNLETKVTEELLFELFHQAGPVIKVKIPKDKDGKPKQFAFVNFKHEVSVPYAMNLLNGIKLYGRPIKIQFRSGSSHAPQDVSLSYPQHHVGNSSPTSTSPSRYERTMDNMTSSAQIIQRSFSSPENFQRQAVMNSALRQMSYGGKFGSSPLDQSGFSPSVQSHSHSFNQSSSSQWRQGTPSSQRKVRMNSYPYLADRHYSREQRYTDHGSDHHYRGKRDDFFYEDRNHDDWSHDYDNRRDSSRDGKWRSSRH
UniProt Q5EBL4: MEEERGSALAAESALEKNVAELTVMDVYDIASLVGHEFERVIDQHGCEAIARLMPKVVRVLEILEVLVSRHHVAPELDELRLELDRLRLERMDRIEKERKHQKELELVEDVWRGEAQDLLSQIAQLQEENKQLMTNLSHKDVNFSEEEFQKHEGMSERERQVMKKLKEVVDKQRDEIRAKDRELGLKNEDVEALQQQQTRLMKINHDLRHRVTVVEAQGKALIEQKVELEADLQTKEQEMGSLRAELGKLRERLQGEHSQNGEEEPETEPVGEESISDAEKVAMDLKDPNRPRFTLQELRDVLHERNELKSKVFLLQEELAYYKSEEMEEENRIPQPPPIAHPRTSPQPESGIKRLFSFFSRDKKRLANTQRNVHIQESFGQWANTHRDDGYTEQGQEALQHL
UniProt Q8IYW5, whole entry, looked up: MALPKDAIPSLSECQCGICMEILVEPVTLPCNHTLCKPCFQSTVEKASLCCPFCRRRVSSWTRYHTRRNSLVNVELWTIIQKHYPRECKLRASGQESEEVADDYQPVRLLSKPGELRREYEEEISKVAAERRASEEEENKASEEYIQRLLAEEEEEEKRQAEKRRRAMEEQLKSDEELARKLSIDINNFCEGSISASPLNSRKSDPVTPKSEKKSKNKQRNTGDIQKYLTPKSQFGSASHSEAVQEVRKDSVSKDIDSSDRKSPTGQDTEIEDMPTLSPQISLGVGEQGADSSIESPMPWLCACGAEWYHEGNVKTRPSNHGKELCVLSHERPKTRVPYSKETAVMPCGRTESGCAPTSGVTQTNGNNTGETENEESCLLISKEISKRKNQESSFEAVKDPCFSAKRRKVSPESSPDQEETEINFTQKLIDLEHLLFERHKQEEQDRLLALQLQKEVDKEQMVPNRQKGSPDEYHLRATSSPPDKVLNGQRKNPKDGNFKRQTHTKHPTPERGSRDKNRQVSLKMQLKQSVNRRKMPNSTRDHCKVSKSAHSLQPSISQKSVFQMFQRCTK
UniProt Q9Y256: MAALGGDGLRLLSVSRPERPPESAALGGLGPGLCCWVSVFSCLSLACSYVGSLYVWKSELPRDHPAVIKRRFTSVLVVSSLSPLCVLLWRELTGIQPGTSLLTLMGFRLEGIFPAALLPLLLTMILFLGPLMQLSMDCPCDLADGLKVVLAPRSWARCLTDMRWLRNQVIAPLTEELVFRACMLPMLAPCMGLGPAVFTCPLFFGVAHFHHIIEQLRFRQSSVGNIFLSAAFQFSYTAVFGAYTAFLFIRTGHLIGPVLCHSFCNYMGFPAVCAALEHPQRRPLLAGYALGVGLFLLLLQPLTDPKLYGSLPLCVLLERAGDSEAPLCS
UniProt Q92546: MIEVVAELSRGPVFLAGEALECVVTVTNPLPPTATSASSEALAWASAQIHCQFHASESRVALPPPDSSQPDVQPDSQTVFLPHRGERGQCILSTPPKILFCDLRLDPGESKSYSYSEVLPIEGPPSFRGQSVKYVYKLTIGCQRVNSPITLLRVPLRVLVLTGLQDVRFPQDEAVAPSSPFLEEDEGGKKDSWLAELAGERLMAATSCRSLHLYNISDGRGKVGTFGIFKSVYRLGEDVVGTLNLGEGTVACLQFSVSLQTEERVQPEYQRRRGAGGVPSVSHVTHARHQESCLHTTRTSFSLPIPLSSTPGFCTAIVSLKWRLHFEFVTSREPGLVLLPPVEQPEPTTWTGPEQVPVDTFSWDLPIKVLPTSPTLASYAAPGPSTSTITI
UniProt Q96A37: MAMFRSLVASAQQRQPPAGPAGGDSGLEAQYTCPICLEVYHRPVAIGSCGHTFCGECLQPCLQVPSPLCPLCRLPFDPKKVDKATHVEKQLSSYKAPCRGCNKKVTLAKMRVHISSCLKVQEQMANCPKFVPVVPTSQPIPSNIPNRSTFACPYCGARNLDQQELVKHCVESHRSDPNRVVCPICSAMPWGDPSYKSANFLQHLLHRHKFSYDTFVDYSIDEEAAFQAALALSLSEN
UniProt Q5UIP0: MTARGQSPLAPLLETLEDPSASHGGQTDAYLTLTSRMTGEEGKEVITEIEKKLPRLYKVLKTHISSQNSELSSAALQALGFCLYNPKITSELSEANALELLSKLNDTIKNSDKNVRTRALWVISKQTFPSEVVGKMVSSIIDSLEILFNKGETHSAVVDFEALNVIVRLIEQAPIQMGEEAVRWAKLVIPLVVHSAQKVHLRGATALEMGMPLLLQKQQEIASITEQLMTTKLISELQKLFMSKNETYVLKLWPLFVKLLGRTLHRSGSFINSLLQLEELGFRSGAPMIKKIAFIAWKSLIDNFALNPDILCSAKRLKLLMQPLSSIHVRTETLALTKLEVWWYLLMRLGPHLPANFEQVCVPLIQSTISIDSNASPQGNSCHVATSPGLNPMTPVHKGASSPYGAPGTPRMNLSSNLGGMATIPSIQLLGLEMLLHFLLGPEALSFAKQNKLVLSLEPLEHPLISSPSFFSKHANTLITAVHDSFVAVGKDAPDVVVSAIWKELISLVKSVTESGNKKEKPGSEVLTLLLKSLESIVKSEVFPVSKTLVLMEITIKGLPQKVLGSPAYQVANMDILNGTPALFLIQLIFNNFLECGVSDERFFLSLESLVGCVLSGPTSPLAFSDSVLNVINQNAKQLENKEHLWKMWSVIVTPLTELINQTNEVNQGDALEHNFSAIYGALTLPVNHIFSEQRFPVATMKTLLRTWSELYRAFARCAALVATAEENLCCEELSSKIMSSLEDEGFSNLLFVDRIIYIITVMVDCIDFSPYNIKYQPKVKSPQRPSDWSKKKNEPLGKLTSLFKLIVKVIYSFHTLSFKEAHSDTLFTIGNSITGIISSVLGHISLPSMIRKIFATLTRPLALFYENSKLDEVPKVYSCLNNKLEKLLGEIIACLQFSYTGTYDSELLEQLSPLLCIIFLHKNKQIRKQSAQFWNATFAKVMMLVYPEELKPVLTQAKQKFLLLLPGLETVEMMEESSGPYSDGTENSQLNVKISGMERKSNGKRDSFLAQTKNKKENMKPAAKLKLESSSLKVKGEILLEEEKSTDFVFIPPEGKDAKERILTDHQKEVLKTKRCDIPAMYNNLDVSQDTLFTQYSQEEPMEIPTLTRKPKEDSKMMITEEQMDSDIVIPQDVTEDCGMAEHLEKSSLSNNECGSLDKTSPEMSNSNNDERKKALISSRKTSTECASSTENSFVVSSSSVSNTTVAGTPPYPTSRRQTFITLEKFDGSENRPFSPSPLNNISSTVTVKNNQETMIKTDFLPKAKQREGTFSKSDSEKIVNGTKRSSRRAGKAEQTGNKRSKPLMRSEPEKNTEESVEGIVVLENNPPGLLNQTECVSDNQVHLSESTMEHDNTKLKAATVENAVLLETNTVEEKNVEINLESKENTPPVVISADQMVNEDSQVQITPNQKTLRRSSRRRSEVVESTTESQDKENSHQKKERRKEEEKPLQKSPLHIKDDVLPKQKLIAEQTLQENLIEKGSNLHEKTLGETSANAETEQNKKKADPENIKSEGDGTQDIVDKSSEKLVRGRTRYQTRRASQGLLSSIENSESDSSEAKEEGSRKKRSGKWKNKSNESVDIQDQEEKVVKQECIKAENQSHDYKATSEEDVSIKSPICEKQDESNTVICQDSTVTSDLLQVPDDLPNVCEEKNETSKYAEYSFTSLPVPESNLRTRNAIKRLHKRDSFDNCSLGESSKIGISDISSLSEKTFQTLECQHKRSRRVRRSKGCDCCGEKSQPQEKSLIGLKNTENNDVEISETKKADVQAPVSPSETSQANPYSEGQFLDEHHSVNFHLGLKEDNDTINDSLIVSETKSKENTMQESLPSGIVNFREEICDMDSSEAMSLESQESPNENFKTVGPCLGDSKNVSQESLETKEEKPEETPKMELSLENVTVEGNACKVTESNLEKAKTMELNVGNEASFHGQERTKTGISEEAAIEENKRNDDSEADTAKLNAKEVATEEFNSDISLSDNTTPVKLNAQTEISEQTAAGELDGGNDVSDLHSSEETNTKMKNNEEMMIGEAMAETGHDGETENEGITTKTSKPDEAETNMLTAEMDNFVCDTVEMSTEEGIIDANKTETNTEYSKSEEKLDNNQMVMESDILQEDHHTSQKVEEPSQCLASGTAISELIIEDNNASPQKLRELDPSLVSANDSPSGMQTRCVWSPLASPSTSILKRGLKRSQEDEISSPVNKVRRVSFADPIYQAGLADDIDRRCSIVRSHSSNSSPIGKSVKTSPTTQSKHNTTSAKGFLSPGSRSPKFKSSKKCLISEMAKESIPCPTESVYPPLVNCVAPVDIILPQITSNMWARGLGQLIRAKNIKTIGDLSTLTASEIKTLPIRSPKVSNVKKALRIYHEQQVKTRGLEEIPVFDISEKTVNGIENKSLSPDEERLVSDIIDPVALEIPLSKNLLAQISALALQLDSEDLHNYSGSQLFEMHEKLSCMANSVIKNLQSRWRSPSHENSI
UniProt Q9Y3C5: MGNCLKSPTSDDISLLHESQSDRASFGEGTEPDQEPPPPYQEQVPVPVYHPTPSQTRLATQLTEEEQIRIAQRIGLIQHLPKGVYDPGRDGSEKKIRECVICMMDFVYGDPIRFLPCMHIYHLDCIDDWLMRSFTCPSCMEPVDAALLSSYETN

Some of the results follow. Residues, ends and D or L forms follow the SMILES beside them. *: point of attachment. Cbz = O=C(OCc1ccccc1)*

Compound in the first assay: CC(C)C1=C2N=C(C=C(N2N=C1)NCC3=CC=CC=C3)NCCCCCCN
Nature of the assay: log2 fold change, soluble protein after heating vs DMSO (PISA); higher = thermal stabilisation; K562 cells, 10 uM, 30 min; active = over 0.2 and 3.5 SD of the protein, either way, in both replicates (recomputed). In a few lines: (§1)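 Soluble protein was quantified by TMTpro 16plex LC-MS/MS after channel sums were equalised. It was obtained as the supernatant after 21,000xg for 90 min from pooled aliquots of K562 cells (2×10^6 cells/mL, 10 μM compound, 30 min) heated for 3 min across 48°C-58°C and extracted in PBS with 0.5% NP-40 at 4°C. Thermal stability values are relative to control samples and come from duplicates. They are given as log2 fold changes.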
RIC8B isoform 1 (UniProt Q9NVN3): the log2 fold change was inactive: -0.143.
Regarding RGS14 (UniProt O43566), the log2 fold change was inactive: -0.047.
For RNF185 (UniProt Q96GF1), the log2 fold change is inactive: -0.011.
Take RIT1 isoform 3 (UniProt Q92963): the log2 fold change was inactive: 0.366.
For RCBTB1 (UniProt Q8NDN9), the log2 fold change was inactive: 0.075.
Regarding RNF111 isoform 3 (UniProt Q6ZNA4), the log2 fold change is inactive: -0.092.
On to RBM7 (UniProt Q9Y580), for which the log2 fold change was inactive: -0.025.
Consider RICTOR isoform 3 (UniProt Q6R327), for which the log2 fold change was inactive: -0.584.
As for RELCH isoform 2 (UniProt Q9P260), the log2 fold change is inactive: -0.099.
Still for that read-out and setting: in the case of RFX3 (UniProt P48380) it was inactive: -0.035; in that of RFWD3 (UniProt Q6PCD5), inactive: -0.054; in that of RILPL1 (UniProt Q5EBL4), inactive: -0.211.
The same measure, in the same setting: to RNF168 (UniProt Q8IYW5) belongs inactive: -0.03.
For RCE1 (UniProt Q9Y256), the log2 fold change is inactive: -0.254.
In the case of RNF220 isoform 3 (UniProt Q5VTB9), the log2 fold change is inactive: 0.056.
On to RGP1 (UniProt Q92546), for which the log2 fold change was inactive: -0.114.
For RNF138 (UniProt Q8WVD3), the log2 fold change is inactive: -0.074.
Regarding RNF166 (UniProt Q96A37), the log2 fold change is inactive: 0.092.
Still for that read-out and setting: in the case of RGCC (UniProt Q9H4X1) it was inactive: -0.056; in that of RIF1 (UniProt Q5UIP0), inactive: -0.349.

Compound in another assay: CC(C)C[C@@H](C=O)NC(=O)[C@H](CC(C)C)NC(=O)[C@H](CC(C)C)NC(=O)OCc1ccccc1
Described as above. In a few lines: as §1
Consider RLIM (UniProt Q9NVW2), for which the log2 fold change is inactive: -0.024.
As for RGS14 (UniProt O43566), the log2 fold change was inactive: 0.047.
The same measure, in the same setting: to RIPOR1 isoform 4 (UniProt Q6ZS17) belongs inactive: 0.228.
On the same count and under the same terms, in the case of RNASEL (UniProt Q05823) it was inactive: 0.372.
Regarding RNF185 (UniProt Q96GF1), the log2 fold change was inactive: -0.003.
With RBM7 (UniProt Q9Y580), the log2 fold change is inactive: -0.14.
Turning to RMDN2 isoform 2 (UniProt Q96LZ7), the log2 fold change is inactive: 0.137.
With RELCH isoform 2 (UniProt Q9P260), the log2 fold change is inactive: 0.065.
Same read-out and setting: in the case of RFC1 (UniProt P35251) it was inactive: 0.173; in that of RMI2 (UniProt Q96E14), inactive: 0.114.
The same measure, in the same setting: in the case of RILPL1 (UniProt Q5EBL4) it was inactive: 0.144; in that of RNF11 (UniProt Q9Y3C5), inactive: 0.149; in that of RNF168 (UniProt Q8IYW5), inactive: 0.013.
On to RCE1 (UniProt Q9Y256), for which the log2 fold change was inactive: 0.045.
On to RGP1 (UniProt Q92546), for which the log2 fold change is inactive: 0.385.
Regarding RNF166 (UniProt Q96A37), the log2 fold change was inactive: 0.039.
As for RCL1 (UniProt Q5VZU2), the log2 fold change was inactive: 0.047.
RIF1 (UniProt Q5UIP0): the log2 fold change was inactive: 0.27.

Compound in another assay: CC(C)N(C[C@H]1O[C@@H](n2cnc3c(N)ncnc32)[C@H](O)[C@@H]1O)[C@H]1C[C@@H](CCc2nc3cc(C(C)(C)C)ccc3[nH]2)C1 [pinometostat]
Described as above. Put shortly:
as §1
Turning to RIC8B isoform 1 (UniProt Q9NVN3), the log2 fold change was inactive: -0.025.
The same measure, in the same setting: in the case of RBM6 (UniProt P78332) it was inactive: -0.09; in that of RIPOR1 isoform 4 (UniProt Q6ZS17), inactive: -0.054.
On to RIT1 isoform 3 (UniProt Q92963), for which the log2 fold change was inactive: -0.127.
Turning to RNF111 isoform 3 (UniProt Q6ZNA4), the log2 fold change is inactive: 0.202.
With RMDN2 isoform 2 (UniProt Q96LZ7), the log2 fold change is inactive: 0.025.
In the case of RILPL1 (UniProt Q5EBL4), the log2 fold change is inactive: 0.03.
As for RNF11 (UniProt Q9Y3C5), the log2 fold change was inactive: -0.014.

Compound in the next assay: CC1=C(C(CC(=O)N1)C2=CC=C(C=C2)C(F)(F)F)C(=O)NC3=C(C=C4C(=C3)C=NN4)F
The description is as above. Put shortly: as §1
Regarding RGS14 (UniProt O43566), the log2 fold change is inactive: 0.349.
As to RNF111 isoform 3 (UniProt Q6ZNA4), the log2 fold change is inactive: -0.009.
Same read-out and setting: in the case of RBM7 (UniProt Q9Y580) it was inactive: 0.032.
Take RGN (UniProt Q15493): the log2 fold change was inactive: -0.064.
Consider RNF115 (UniProt Q9Y4L5), for which the log2 fold change is inactive: 0.115.
Turning to RELCH isoform 2 (UniProt Q9P260), the log2 fold change is inactive: 0.001.
In the case of RNF168 (UniProt Q8IYW5), the log2 fold change was inactive: -0.143.
Take RCE1 (UniProt Q9Y256): the log2 fold change is inactive: -0.068.
With RGP1 (UniProt Q92546), the log2 fold change was inactive: -0.046.
As to RNF138 (UniProt Q8WVD3), the log2 fold change was inactive: 0.098.
With RGCC (UniProt Q9H4X1), the log2 fold change is inactive: -0.346.
On the same count and under the same terms, to RIF1 (UniProt Q5UIP0) belongs inactive: 0.015.

Compound in another assay: CC1=C(C2=C(C=C1)C(=O)C3=CC=CC=C3N2CCCN)C
Described as above. In a few lines:
as §1
Take RNF169 (UniProt Q8NCN4): the log2 fold change is inactive: 0.152.
With RLIM (UniProt Q9NVW2), the log2 fold change is inactive: 0.067.
As to RBM6 (UniProt P78332), the log2 fold change was inactive: -0.16.
Consider RGS14 (UniProt O43566), for which the log2 fold change is inactive: 0.032.
For the target RIPOR1 isoform 4 (UniProt Q6ZS17), the log2 fold change is inactive: 0.
Regarding RNF185 (UniProt Q96GF1), the log2 fold change is inactive: 0.276.
As to RBM7 (UniProt Q9Y580), the log2 fold change is inactive: 0.23.
Regarding RGN (UniProt Q15493), the log2 fold change is inactive: -0.121.
On to RICTOR isoform 3 (UniProt Q6R327), for which the log2 fold change was inactive: -0.223.
For the target RELCH isoform 2 (UniProt Q9P260), the log2 fold change was inactive: 0.101.
In the case of RFC1 (UniProt P35251), the log2 fold change was inactive: 0.263.
RMI2 (UniProt Q96E14): the log2 fold change is inactive: 0.099.
On to RILPL1 (UniProt Q5EBL4), for which the log2 fold change is inactive: -0.047.
For the target RNF168 (UniProt Q8IYW5), the log2 fold change is inactive: -0.057.
For the target RCE1 (UniProt Q9Y256), the log2 fold change was inactive: 0.007.
As for RGP1 (UniProt Q92546), the log2 fold change is inactive: 0.205.
For RC3H2 (UniProt Q9HBD1), the log2 fold change is inactive: -0.081.
For the target RNF138 (UniProt Q8WVD3), the log2 fold change was inactive: -0.092.
As to RNF166 (UniProt Q96A37), the log2 fold change is inactive: -0.05.
Take RCL1 (UniProt Q5VZU2): the log2 fold change was inactive: -0.089.
For RIF1 (UniProt Q5UIP0), the log2 fold change is inactive: 0.1.
